# From patent publication US20090076044A1, “VEGFR INHIBITORS CONTAINING A ZINC BINDING MOIETY” (priority 2007, published 2009)
# At least one compound was matched to its structure with a doubt left.
# Tested on: HDAC
# Test: HDAC fluorimetric assay kit (HeLa nuclear extract)
# Assay type: biochemical
# Procedure: (b) An In Vitro Assay which Determines the Ability of a Test Compound to Inhibit HDAC Enzymatic Activity.
# HDAC inhibitors were screened using an HDAC fluorimetric assay kit (AK-500, Biomol, Plymouth Meeting, Pa.). Test compounds were dissolved in dimethylsulphoxide (DMSO) to give a 20 mM working stock concentration. Fluorescence was measured on a WALLAC Victor 2 plate reader and reported as relative fluorescence units (RFU). Data were plotted using GraphPad Prism (v4.0a) and IC50's calculated using a sigmoidal dose response curve fitting algorithm. Each assay was setup as follows: Defrosted all kit components and kept on ice until use. Diluted HeLa nuclear extract 1:29 in Assay Buffer (50 mM Tris/Cl, pH 8.0, 137 mM NaCl, 2.7 mM KCl, 1 mM MgCl2). […] Allowed diluted Fluor de Lys™ Substrate and the samples in the microtiter plate to equilibrate to assay temperature (e.g. 25 or 37° C. Initiated HDAC reactions by adding diluted substrate (25 μl) to each well and mixing thoroughly. Allowed HDAC reactions to proceed for 1 hour and then stopped them by addition of Fluor de Lys™ Developer (50 μl). Incubated plate at room temperature (25° C.) for 10-15 min. Read samples in a microtiter-plate reading fluorimeter capable of excitation at a wavelength in the range 350-380 nm and detection of emitted light in the range 440-460 nm.
smiles,measurement,value
"Cc1cc2c(F)c(Nc3ncnc4cc(OCCCN5CCCC5)c(OCCCCCCC(=O)NO)cc34)ccc2[nH]1 [Compound 20, 7-(4-(4-Fluoro-2-methyl-1H-indol-5-ylamino)-7-(3-(pyrrolidin-1-yl)propoxy)quinazolin-6-yloxy)-N-hydroxyheptanamide]",IC50,< 100 nM
